Measured values taken from PubChem BioAssay AID256 (DTP/NCI, 2004).
The list does not hold the whole screen: it covers a few groups of compounds. Other doses and runs of a compound may be missing. T/C is the treated group as % of the vehicle group. Some doses have a count of surviving animals in place of a T/C: the source holds a T/C of zero for them, seemingly a mark for toxic or unscored doses. Some doses without a T/C left all or most animals alive at the check, yet need not have been tolerated: the source hardly ever lists a survival T/C far under the control, and the zero likely stands for such cases as well. Counts of survivors are from the toxicity check (mostly the fifth day) where no day follows; animals may have died later. Schedules are NCI's codes, taken here to give the interval after Q, in days (D) or hours (H), and the number of doses after X. Some entries hold several experiments; the values are given in rising order. Some metal complexes and salts are drawn in pieces, as in the source, so charges may not balance. Where survival is the endpoint, this PubChem deposit counts one and a half times the control or more as active, and values a quarter to a half above the control carry no call in these data; other NCI protocols may use other cut-offs. Counts like (3×) stand for listed records that agree. Some T/C values carry the count of animals alive at the toxicity check (mostly the fifth day); where neither a count nor a note follows, no animal had died by that day.

System: CD2F1 mice, L1210 leukemia ip, survival T/C
Assay: NCI In Vivo Anticancer Drug Screen. Data for tumor model L1210 Leukemia (intraperitoneal) in CD2F1 (CDF1) mice
Conditions: T/C endpoint: mean survival time, higher T/C = longer survival
In short: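 Read-out first: treated-group measurement over vehicle-control measurement, expressed as a ratio. Animals bore a transplanted tumor line and were dosed with compound or vehicle.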

[1] = dose: 15.62 mg/kg/injection, schedule: Q01DX001 (ip), vehicle: DMSO
[2] = dose: 62.5 mg/kg/injection, schedule: Q01DX001 (ip), vehicle: DMSO
[3] = dose: 125.0 mg/kg/injection, schedule: Q01DX001 (ip), vehicle: DMSO
[4] = dose: 250.0 mg/kg/injection, schedule: Q01DX001 (ip), vehicle: DMSO
[5] = dose: 500.0 mg/kg/injection, schedule: Q01DX001 (ip), vehicle: DMSO
[6] = dose: 50.0 mg/kg/injection, schedule: Q01DX001 (ip), vehicle: DMSO

**Q.** For `O=P1(N(CCCl)CCCl)NC(CO)CO1` (stereo unspecified), which T/C (dose: 6.25 mg/kg/injection, schedule: Q01DX009 (ip), vehicle: water) is on record?
**A.** 94 and 95 % of control

**Q.** What about the T/C (dose: 12.5 mg/kg/injection, schedule: Q01DX009 (ip), vehicle: water) of the same compound?
**A.** 94 and 95 % of control

**Q.** What about the T/C [1] of the same compound?
**A.** 97 % of control

**Q.** And the T/C (dose: 23.3 mg/kg/injection, schedule: Q01DX001 (ip), vehicle: water)?
**A.** 97 and 98 % of control

**Q.** And the T/C (dose: 25.0 mg/kg/injection, schedule: Q01DX009 (ip), vehicle: water)?
**A.** 94 and 100 % of control

**Q.** And the T/C (dose: 31.25 mg/kg/injection, schedule: Q01DX001 (ip), vehicle: DMSO)?
**A.** 106 % of control

**Q.** And the T/C (dose: 38.9 mg/kg/injection, schedule: Q01DX001 (ip), vehicle: water)?
**A.** 101 % of control (2×)

**Q.** What about the T/C (dose: 50.0 mg/kg/injection, schedule: Q01DX009 (ip), vehicle: water) of the same compound?
**A.** 97 and 100 % of control

**Q.** What about the T/C [2] of the same compound?
**A.** 108 % of control

**Q.** And the T/C (dose: 64.8 mg/kg/injection, schedule: Q01DX001 (ip), vehicle: water)?
**A.** 98 % of control (2×)

**Q.** And the T/C (dose: 100.0 mg/kg/injection, schedule: Q01DX009 (ip), vehicle: water)?
**A.** 97 and 105 % of control

**Q.** What about the T/C (dose: 108.0 mg/kg/injection, schedule: Q01DX001 (ip), vehicle: water) of the same compound?
**A.** 101 % of control (2×)

**Q.** And the T/C [3]?
**A.** 124 % of control

**Q.** And the T/C (dose: 180.0 mg/kg/injection, schedule: Q01DX001 (ip), vehicle: water)?
**A.** 101 and 103 % of control

**Q.** And the T/C (dose: 200.0 mg/kg/injection, schedule: Q01DX009 (ip), vehicle: water)?
**A.** 103 and 114 % of control

**Q.** And the T/C [4]?
**A.** 132 % of control

**Q.** What about the T/C (dose: 300.0 mg/kg/injection, schedule: Q01DX001 (ip), vehicle: water) of the same compound?
**A.** 103 and 104 % of control

**Q.** And the survivor count [5]?
**A.** 6 of 6

**Q.** For `F[PH+](F)F.F[PH+](F)F.F[PH+](F)F.F[PH+](F)F.[Pt]`, which T/C (dose: 3.12 mg/kg/injection, schedule: Q04DX003 (ip), vehicle: other) is on record?
**A.** 96 % of control

**Q.** And the T/C (dose: 6.25 mg/kg/injection, schedule: Q04DX003 (ip), vehicle: other)?
**A.** 97 % of control

**Q.** What about the T/C (dose: 12.5 mg/kg/injection, schedule: Q04DX003 (ip), vehicle: other) of the same compound?
**A.** 94 % of control

**Q.** What about the T/C (dose: 25.0 mg/kg/injection, schedule: Q04DX003 (ip), vehicle: other) of the same compound?
**A.** 96 % of control

**Q.** What about the T/C (dose: 50.0 mg/kg/injection, schedule: Q04DX003 (ip), vehicle: other) of the same compound?
**A.** 102 % of control [5 of 6 alive]

**Q.** And the survivor count (dose: 100.0 mg/kg/injection, schedule: Q04DX003 (ip), vehicle: other)?
**A.** 0 of 6

**Q.** What about the survivor count (dose: 200.0 mg/kg/injection, schedule: Q04DX003 (ip), vehicle: other) of the same compound?
**A.** 0 of 6

**Q.** Which results are given for `O=[N+]([O-])c1ccc(S(=O)(=O)c2ccc([N+](=O)[O-])cc2[N+](=O)[O-])c([N+](=O)[O-])c1`?
**A.** T/C (dose: 75.0 mg/kg/injection, schedule: Q01DX001 (ip), vehicle: other): 100 % of control; T/C (dose: 150.0 mg/kg/injection, schedule: Q01DX001 (ip), vehicle: other): 108 % of control [5 of 6 alive]; survivor count (dose: 300.0 mg/kg/injection, schedule: Q01DX001 (ip), vehicle: other): 0 of 6

**Q.** Which results are given for `CC(CO)COP(N)(=O)N(CCCl)CCCl` (stereo unspecified)?
**A.** T/C [1]: 98 % of control; T/C (dose: 31.3 mg/kg/injection, schedule: Q01DX001 (ip), vehicle: DMSO): 101 % of control; T/C [2]: 108 % of control; T/C [3]: 104 % of control; T/C [4]: 97 % of control; T/C [5]: 97 % of control

**Q.** `CCNCCN(CC)C(=N)C(=N)N(CC)CCNCC.O=[N+]([O-])c1cc([N+](=O)[O-])c(O)c([N+](=O)[O-])c1` was tested. Which T/C (dose: 25.0 mg/kg/injection, schedule: Q04DX002 (ip), vehicle: saline with Tween-80) did it give?
**A.** 93 % of control

**Q.** What about the T/C (dose: 50.0 mg/kg/injection, schedule: Q04DX002 (ip), vehicle: saline with Tween-80) of the same compound?
**A.** 93 % of control

**Q.** What about the T/C (dose: 100.0 mg/kg/injection, schedule: Q04DX002 (ip), vehicle: saline with Tween-80) of the same compound?
**A.** 93 % of control

**Q.** And the T/C (dose: 200.0 mg/kg/injection, schedule: Q04DX002 (ip), vehicle: saline with Tween-80)?
**A.** 89 % of control

**Q.** What does the source list for `CC(=O)CCOP(=O)(N(CCCl)CCCl)N1CC1` (stereo unspecified)?
**A.** T/C (dose: 6.25 mg/kg/injection, schedule: Q01DX001 (ip), vehicle: DMSO): 122 % of control; T/C (dose: 12.5 mg/kg/injection, schedule: Q01DX001 (ip), vehicle: DMSO): 132 % of control; T/C (dose: 25.0 mg/kg/injection, schedule: Q01DX001 (ip), vehicle: DMSO, evaluated on day 35): 226 % of control; T/C (dose: 25.0 mg/kg/injection, schedule: Q01DX001 (ip), vehicle: DMSO, evaluated on day 45): 175 % of control; T/C [6]: 135 % of control; survivor count [6]: 5 of 6; survivor count (dose: 100.0 mg/kg/injection, schedule: Q01DX001 (ip), vehicle: DMSO): 0 of 6 and 5 of 6; survivor count (dose: 200.0 mg/kg/injection, schedule: Q01DX001 (ip), vehicle: DMSO): 0 of 6; survivor count (dose: 400.0 mg/kg/injection, schedule: Q01DX001 (ip), vehicle: DMSO): 0 of 6

**Q.** `C[As](C)SC1OC(CO)C(O)C(O)C1O` (stereo unspecified) was tested. Which T/C (dose: 3.12 mg/kg/injection, schedule: Q01DX009 (ip), vehicle: saline) did it give?
**A.** 90 and 101 % of control

**Q.** And the T/C (dose: 6.25 mg/kg/injection, schedule: Q01DX009 (ip), vehicle: saline)?
**A.** 95 and 104 % of control

**Q.** And the T/C (dose: 12.5 mg/kg/injection, schedule: Q01DX009 (ip), vehicle: saline)?
**A.** 96 and 97 % of control

**Q.** What about the T/C (dose: 25.0 mg/kg/injection, schedule: Q01DX009 (ip), vehicle: saline, evaluated on day 20) of the same compound?
**A.** 107 % of control

**Q.** And the T/C (dose: 25.0 mg/kg/injection, schedule: Q01DX009 (ip), vehicle: saline, evaluated on day 30)?
**A.** 103 and 109 % of control

**Q.** And the T/C (dose: 25.0 mg/kg/injection, schedule: Q04DX003 (ip), vehicle: saline)?
**A.** 97 % of control

**Q.** What about the T/C (dose: 50.0 mg/kg/injection, schedule: Q01DX009 (ip), vehicle: saline, evaluated on day 20) of the same compound?
**A.** 108 % of control

**Q.** And the T/C (dose: 50.0 mg/kg/injection, schedule: Q01DX009 (ip), vehicle: saline, evaluated on day 30)?
**A.** 104 and 109 % of control

**Q.** What about the T/C (dose: 50.0 mg/kg/injection, schedule: Q04DX003 (ip), vehicle: saline) of the same compound?
**A.** 97 % of control

**Q.** And the survivor count (dose: 100.0 mg/kg/injection, schedule: Q01DX009 (ip), vehicle: saline)?
**A.** 1 of 6 and 4 of 6

**Q.** And the T/C (dose: 100.0 mg/kg/injection, schedule: Q04DX003 (ip), vehicle: saline)?
**A.** 100 % of control

**Q.** `CN1CCCOP1(=O)N(CCCl)CCCl` (stereo unspecified) was tested. Which T/C (dose: 6.25 mg/kg/injection, schedule: Q01DX009 (ip), vehicle: other) did it give?
**A.** 94 % of control

**Q.** And the T/C (dose: 12.5 mg/kg/injection, schedule: Q01DX009 (ip), vehicle: other)?
**A.** 102 % of control

**Q.** And the T/C (dose: 25.0 mg/kg/injection, schedule: Q01DX009 (ip), vehicle: other)?
**A.** 102 % of control

**Q.** What about the T/C (dose: 31.3 mg/kg/injection, schedule: Q01DX001 (ip), vehicle: other) of the same compound?
**A.** 115 % of control

**Q.** And the T/C (dose: 50.0 mg/kg/injection, schedule: Q01DX009 (ip), vehicle: other)?
**A.** 102 % of control

**Q.** What about the T/C (dose: 62.5 mg/kg/injection, schedule: Q01DX001 (ip), vehicle: other) of the same compound?
**A.** 98 % of control

**Q.** What about the T/C (dose: 100.0 mg/kg/injection, schedule: Q01DX009 (ip), vehicle: other) of the same compound?
**A.** 108 % of control

**Q.** What about the T/C (dose: 125.0 mg/kg/injection, schedule: Q01DX001 (ip), vehicle: other) of the same compound?
**A.** 102 % of control

**Q.** What about the T/C (dose: 250.0 mg/kg/injection, schedule: Q01DX001 (ip), vehicle: other) of the same compound?
**A.** 113 % of control

**Q.** What about the T/C (dose: 500.0 mg/kg/injection, schedule: Q01DX001 (ip), vehicle: other) of the same compound?
**A.** 115 % of control [4 of 6 alive]

**Q.** How did the T/C (dose: 50.0 mg/kg/injection, schedule: Q01DX009 (ip), vehicle: Klucel (hydroxypropylcellulose) (HPC)) turn out when `CC(Cl)CN(CC(C)Cl)C(=O)c1ccccc1` (stereo unspecified) was run?
**A.** 118 % of control

**Q.** What about the T/C (dose: 100.0 mg/kg/injection, schedule: Q01DX009 (ip), vehicle: Klucel (hydroxypropylcellulose) (HPC)) of the same compound?
**A.** 109 % of control

**Q.** What about the survivor count (dose: 200.0 mg/kg/injection, schedule: Q01DX009 (ip), vehicle: Klucel (hydroxypropylcellulose) (HPC)) of the same compound?
**A.** 1 of 3
